In the supplement of paper PMC7125110:
± gives the standard error. Many of these values have a large error.

B1: glmS ribozyme (parent)
chain: AUAAAAGCGCCAGAACUACAGAAAUGUAGUUGACGAGGAGGAGGUUUAUCGAAUUUUCGGCGGAUGCCUCCAAA

Variants of: B1
Test: self-cleavage kobs at 2500 uM GlcN6P; higher = faster cleavage; RNA array
Conditions: with glucosamine-6-phosphate
Outline: (§1)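 Glucosamine-6-phosphate, from 40 μM to 10 mM in HEPES/KCl/Mg(OAc)2 buffer, was flowed over sequenced MiSeq chips carrying barcoded ribozyme variants transcribed in situ by E. coli RNA polymerase. A hybridised Cy3 probe tracked the variants at 37 °C as tiles were imaged over ~14 h. kobs, kcat and KM were obtained by fitting normalised per-tile medians to exponential decays and then applying weighted Michaelis–Menten fits across concentrations.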

Variant	self-cleavage kobs at 2500 uM GlcN6P [s⁻¹]
C10U C58G C67A	6.4e-05 ± 3.8e-05
C10U C68U	1.83e-05 ± 1.1e-05
C10U C70G C71G	4.33e-05 ± 2.3e-05
C10U G21U	2.82e-05 ± 1.7e-05
C10U G62A C70U C71G	3.23e-05 ± 2.4e-05
C10U G63C U65G C70A C71A	2.7e-05 ± 2.6e-05
C10U U56A G62A U65A U69G	3.13e-05 ± 2.1e-05
C10U U69C	2.39e-05 ± 1.4e-05
C11A A15U C70G	4.55e-05 ± 2.6e-05
C11A C19A	4.89e-05 ± 2.9e-05
C11A U54A C68U	4.31e-05 ± 2.4e-05
C11G A15U U54A C70A	4.07e-05 ± 2.6e-05
C11G C50U U57A G60A C67U	3.71e-05 ± 2.3e-05
C11G C61U G63A U69A	2.81e-05 ± 2.6e-05
C11G G13U C50G G60U C61G	4.31e-05 ± 2.7e-05
C11U G13A U45A	3.48e-05 ± 2e-05
C11U G35U C68G C70A	4.38e-05 ± 2.7e-05
C11U U46G C50G	4.37e-05 ± 2.3e-05
C11U U57A C70U	5.79e-05 ± 5e-05
A12C A14U C16U U46G	2.8e-05 ± 2.3e-05
A12C A53G A64U	4.05e-05 ± 2.3e-05

Variant	self-cleavage kobs at 2500 uM GlcN6P [s⁻¹]
A12C G29A G41U	4.67e-05 ± 3.1e-05
A12C U49G U56C	2.33e-05 ± 1.7e-05
A12G A15C G40U	2.68e-05 ± 2.4e-05
A12G A15U G40C	2.99e-05 ± 1.7e-05
A12G A39G C70G	5.25e-05 ± 2.8e-05
A12G C16A	2.62e-05 ± 1.8e-05
A12G C16G C50G C68G	6.14e-05 ± 3.2e-05
A12G C16U G32A	1.98e-05 ± 1.4e-05
A12G G13C U54C	2.53e-05 ± 2.5e-05
A12G G32C U47G U56G	2.4e-05 ± 1.9e-05
A12G G37A U69G	2.39e-05 ± 2.3e-05
A12G U31A C71A	2.64e-05 ± 1.6e-05
A12G U31C C50A G60A C68A	2.84e-05 ± 1.6e-05
A12U A14G C16G	0.000356 ± 0.00025
A12U A14U G32U	2.93e-05 ± 2.6e-05
A12U A39U U54C	0.0258 ± 0.016
A12U A42G A48G C68U	3.42e-05 ± 2.9e-05
A12U C16U U54A	0.0246 ± 0.013
A12U G13U G32U A64G	5.65e-05 ± 2.9e-05
A12U G29U	0.0189 ± 0.013
A12U G32A C71G	3.46e-05 ± 2.5e-05

Variant	self-cleavage kobs at 2500 uM GlcN6P [s⁻¹]
A12U G44U A52G	2.7e-05 ± 1.4e-05
A12U U30A G32C C58G	4.29e-05 ± 2.4e-05
A12U U56A A64C C67U	1.81e-05 ± 1.6e-05
G13A C16A C68G	0.000767 ± 0.0004
G13A G29U C58U	5.14e-05 ± 3.9e-05
G13A G40U U45A	1.74e-05 ± 1.5e-05
G13A G51A C70A	3.39e-05 ± 2.4e-05
G13A U49A U69A	2.45e-05 ± 1.8e-05
G13C A14G C67G	2.4e-05 ± 2.4e-05
G13C A52U G59A C68G	3.42e-05 ± 2.4e-05
G13C A53C	2.21e-05 ± 1.8e-05
G13C C16A A39G	3.56e-05 ± 1.8e-05
G13C C58U C71U	3.09e-05 ± 2.5e-05
G13C C70G	2.83e-05 ± 1.5e-05
G13C G29C G62U	3.97e-05 ± 3.5e-05
G13C G51A U69G	0.0027 ± 0.0021
G13C G59C U69A	4.29e-05 ± 3.5e-05
G13C U30G	2.34e-05 ± 1.7e-05
G13C U55A U69A	3.36e-05 ± 3.1e-05
G13C U55G C58G	4.13e-05 ± 2.3e-05
G13U A52U C68G	4.22e-05 ± 3.1e-05

Variant	self-cleavage kobs at 2500 uM GlcN6P [s⁻¹]
G13U C61G C70U	9.54e-05 ± 5.5e-05
G13U U49G	1.99e-05 ± 1.2e-05
A14C A36G C70G	3.48e-05 ± 3e-05
A14C A39C G41U	0.000153 ± 0.00011
A14C C16A C70A	4.63e-05 ± 2.7e-05
A14C C34G U49A C70G	3.14e-05 ± 1.8e-05
A14C G29C U30A C58G	5.07e-05 ± 3.7e-05
A14C G37C C68G	3.54e-05 ± 3e-05
A14C G37U G66A C68G	3.48e-05 ± 2.8e-05
A14C G44A U45A	3.16e-05 ± 2.4e-05
A14C U31G G32U C70G	5.39e-05 ± 2.8e-05
A14C U46C	0.000148 ± 8.7e-05
A14C U47A C58G C67G U69C	5e-05 ± 3.3e-05
A14G A48U C70A	4.6e-05 ± 2.5e-05
A14G C70U	0.0417 ± 0.024
A14G G29U A52C C68A	3.23e-05 ± 2e-05
A14G G29U G44U C67G	0.00265 ± 0.0018
A14G U30G C70U	0.011 ± 0.0076
A14U A15U G29A	2.46e-05 ± 2.1e-05
A14U A48U	2.25e-05 ± 1.6e-05
A14U C50A U54G G62A C68U	3.18e-05 ± 1.8e-05

4 neighbouring entries already listed, quoted:
Variant	self-cleavage kobs at 2500 uM GlcN6P [s⁻¹]
A14C G37U G66A C68G	3.48e-05 ± 2.8e-05
A14C G44A U45A	3.16e-05 ± 2.4e-05
A14C U31G G32U C70G	5.39e-05 ± 2.8e-05
A14C U46C	0.000148 ± 8.7e-05

Variants of: B1
Test: self-cleavage kobs at 10000 uM GlcN6P; higher = faster cleavage; RNA array
Conditions: with glucosamine-6-phosphate
Outline: as §1

Variant	self-cleavage kobs at 10000 uM GlcN6P [s⁻¹]
A12G A15U G40C	4.59e-05 ± 2.5e-05
A12U A14G C16G	0.107 ± 0.098
G13C C58U C71U	1.68e-05 ± 1.3e-05
G13U U49G	1.42e-05 ± 1.4e-05
